The subject of this assay is BDF1 mice, L1210 terephthalanilide-resistant leukemia ip, survival T/C. As to the kind of experiment: NCI In Vivo Anticancer Drug Screen. Data for tumor model L1210 Leukemia resistant to A Terephthalanilide; NSC 38280 (intraperitoneal) in B6D2F1 (BDF1) mice. To be noted: T/C endpoint: mean survival time, higher T/C = longer survival. The protocol:
The antitumor activity of compounds was measured in mice bearing transplantable tumors. Survival or tumor size were measured and the results are expressed as the measurement made in the treated group (T) divided by the measurement made in the vehicle treated control group (C). The tumor model used in this assay is L1210 Leukemia resistant to A Terephthalanilide; NSC 38280 (intraperitoneal) in B6D2F1 (BDF1) mice

The mark [1] stands for this setting: dose: 0.25 mg/kg/injection, schedule: Q01DX Z (ip), vehicle: saline.
[2] abbreviates: dose: 0.37 mg/kg/injection, schedule: Q01DX Z (ip), vehicle: saline.
Where [3] appears, read: dose: 0.5 mg/kg/injection, schedule: Q01DX Z (ip), vehicle: saline.
[4] abbreviates: dose: 0.63 mg/kg/injection, schedule: Q01DX010 (ip), vehicle: saline.
Where [5] appears, read: dose: 0.75 mg/kg/injection, schedule: Q01DX Z (ip), vehicle: saline.
Setting [6] is: dose: 1.0 mg/kg/injection, schedule: Q01DX Z (ip), vehicle: saline.
[7] abbreviates: dose: 1.25 mg/kg/injection, schedule: Q01DX010 (ip), vehicle: saline.
Where [8] appears, read: dose: 2.0 mg/kg/injection, schedule: Q01DX Z (ip), vehicle: saline.
Setting [9] is: dose: 2.5 mg/kg/injection, schedule: Q01DX010 (ip), vehicle: saline.
Setting [10] is: dose: 3.5 mg/kg/injection, schedule: Q01DX Z (ip), vehicle: saline.
Where [11] appears, read: dose: 5.0 mg/kg/injection, schedule: Q01DX Z (ip), vehicle: saline.
Setting [12] is: dose: 0.37 mg/kg/injection, schedule: Q01DX Z (ip), vehicle: carboxymethylcellulose (CMC).
[13] abbreviates: dose: 0.5 mg/kg/injection, schedule: Q01DX Z (ip), vehicle: carboxymethylcellulose (CMC).
[14] abbreviates: dose: 0.75 mg/kg/injection, schedule: Q01DX Z (ip), vehicle: carboxymethylcellulose (CMC).
Setting [15] is: dose: 1.0 mg/kg/injection, schedule: Q01DX Z (ip), vehicle: carboxymethylcellulose (CMC).
The mark [16] stands for this setting: dose: 2.0 mg/kg/injection, schedule: Q01DX Z (ip), vehicle: carboxymethylcellulose (CMC).

The list does not hold the whole screen: its compounds were picked by chemical class. Other doses and runs of a compound may be missing. T/C: endpoint of the treated group in % of that of the vehicle group. Where survival is the endpoint, this PubChem deposit counts one and a half times the control or more as active, and values a quarter to a half above the control carry no call in these data; other NCI protocols may use other cut-offs. Some T/C values are marked as having no survivor count here; that says nothing about deaths at the dose. Schedule codes are those of the source, read here as Q, the interval in days (D) or hours (H), X, the number of doses. Some entries hold several experiments; the values are given in rising order. Some schedule codes hold Z or #, which are not explained here.

`O=C(O)CN(CCCl)CCCl`: the T/C runs as follows: under setting [1], 107 [survivor count not shown] and 114 % of control [survivor count not shown]; under setting [2], 117 [survivor count not shown] and 119 % of control [survivor count not shown]; under setting [3], 122 [survivor count not shown] and 127 % of control [survivor count not shown]; under setting [4], 123 [survivor count not shown] and 125 % of control [survivor count not shown]; under setting [5], 119 [survivor count not shown] and 147 % of control [survivor count not shown]; under setting [6], 136 [survivor count not shown] and 159 % of control [survivor count not shown]. Besides, the T/C by setting is: under setting [7], 113 [survivor count not shown] and 142 % of control [survivor count not shown]; under setting [8], 139 [survivor count not shown] and 154 % of control [survivor count not shown]; under setting [9], 113 [survivor count not shown] and 147 % of control [survivor count not shown]; under setting [10], 127 [survivor count not shown] and 181 % of control [survivor count not shown]; under setting [11], 136 [survivor count not shown], 146 [survivor count not shown], 168 % of control [survivor count not shown].
In the case of `NC(Cc1ccccc1N(CCCl)CCCl)C(=O)O` (stereo not drawn), the T/C is, setting by setting: (dose: 0.13 mg/kg/injection, schedule: Q01DX010 (ip), vehicle: saline) 123 % of control [survivor count not shown]; (dose: 0.18 mg/kg/injection, schedule: Q01DX Z (ip), vehicle: carboxymethylcellulose (CMC)) 177 % of control [survivor count not shown]; (dose: 0.25 mg/kg/injection, schedule: Q01DX010 (ip), vehicle: saline) 145 % of control [survivor count not shown]; under setting [12], 191 % of control [survivor count not shown]; under setting [13], 202 % of control [survivor count not shown]; under setting [14], 227 % of control [survivor count not shown]. Moreover, the T/C was 295 % of control [survivor count not shown] under setting [15]; 203 % of control [survivor count not shown] (dose: 1.5 mg/kg/injection, schedule: Q01DX Z (ip), vehicle: carboxymethylcellulose (CMC)); 128 % of control [survivor count not shown] under setting [16]; 115 % of control [survivor count not shown] (dose: 37.0 micrograms/kg/injection, schedule: Q01DX Z (ip), vehicle: saline); 119 % of control [survivor count not shown] (dose: 50.0 micrograms/kg/injection, schedule: Q01DX Z (ip), vehicle: saline); 125 % of control [survivor count not shown] (dose: 75.0 micrograms/kg/injection, schedule: Q01DX Z (ip), vehicle: saline). Further, under “dose: 100.0 micrograms/kg/injection, schedule: Q01DX Z (ip), vehicle: saline”, the T/C was 136 % of control [survivor count not shown].
As for `CC(C(=O)O)N(CCCl)CCCl` (stereo not drawn), the T/C was 120 % of control [survivor count not shown] under setting [1]; 121 % of control [survivor count not shown] under setting [2]; 119 [survivor count not shown] and 129 % of control [survivor count not shown] (dose: 0.5 mg/kg/injection, schedule: Q01DX010 (ip), vehicle: saline); 131 % of control [survivor count not shown] under setting [3]; 147 % of control [survivor count not shown] under setting [5]; 131 [survivor count not shown] and 133 % of control [survivor count not shown] (dose: 1.0 mg/kg/injection, schedule: Q01DX010 (ip), vehicle: saline). The T/C was 143 % of control [survivor count not shown] under setting [6]; 146 [survivor count not shown] and 148 % of control [survivor count not shown] (dose: 2.0 mg/kg/injection, schedule: Q01DX010 (ip), vehicle: saline); 160 % of control [survivor count not shown] under setting [8]; 231 % of control [survivor count not shown] under setting [10]; 152 [survivor count not shown] and 160 % of control [survivor count not shown] under setting [11]; 96 % of control [survivor count not shown] (dose: 7.5 mg/kg/injection, schedule: Q01DX Z (ip), vehicle: saline).
`NC1CCCCC1.NP(=O)(O)N(CCCl)CCCl`: the T/C reads like this: (dose: 15.6 mg/kg/injection, schedule: Q01DX010 (ip), vehicle: saline) 142 [survivor count not shown] and 143 % of control [survivor count not shown]; (dose: 31.3 mg/kg/injection, schedule: Q01DX010 (ip), vehicle: saline) 154 [survivor count not shown], 179 [survivor count not shown], 224 % of control [survivor count not shown]; (dose: 62.5 mg/kg/injection, schedule: Q01DX010 (ip), vehicle: saline) 103 [survivor count not shown] and 182 % of control [survivor count not shown].
As to `NC(Cc1cccc(N(CCCl)CCCl)c1)C(=O)O` (stereo not drawn), the T/C (dose: 0.25 mg/kg/injection, schedule: Q01DX Z (ip), vehicle: carboxymethylcellulose (CMC)) is 108 % of control [survivor count not shown]; the T/C under setting [12] was 116 % of control [survivor count not shown]; the T/C under setting [13] was 129 % of control [survivor count not shown]; the T/C under setting [4] was 124 [survivor count not shown] and 139 % of control [survivor count not shown]; the T/C under setting [14] was 153 % of control [survivor count not shown]; the T/C under setting [15] is 170 % of control [survivor count not shown]. The T/C reads like this: under setting [7], 102 [survivor count not shown] and 114 % of control [survivor count not shown]; under setting [16], 205 % of control [survivor count not shown]; under setting [9], 86 [survivor count not shown] and 197 % of control [survivor count not shown]; (dose: 4.0 mg/kg/injection, schedule: Q01DX Z (ip), vehicle: carboxymethylcellulose (CMC)) 196 % of control [survivor count not shown]; (dose: 5.0 mg/kg/injection, schedule: Q01DX010 (ip), vehicle: saline) 89 % of control [survivor count not shown]; (dose: 5.0 mg/kg/injection, schedule: Q01DX Z (ip), vehicle: carboxymethylcellulose (CMC)) 129 % of control [survivor count not shown]. Besides, the T/C by setting is: (dose: 6.0 mg/kg/injection, schedule: Q01DX Z (ip), vehicle: carboxymethylcellulose (CMC)) 148 % of control [survivor count not shown]; (dose: 7.5 mg/kg/injection, schedule: Q01DX Z (ip), vehicle: carboxymethylcellulose (CMC)) 111 % of control [survivor count not shown].

The values are drawn from PubChem BioAssay AID282 (DTP/NCI, 2004).
